Test results as given in PubChem BioAssay AID1347076 (National Center for Advancing Translational Sciences (NCATS), 2019).
Hit rate of the full screen: of about 400,000 compounds, about 13,000 (3.2%) were called active. Inconclusive results, whose numbers are uncertain, are shown with a selection of clear calls. Calls follow the shape of the dose curve; as a rule, active = well fitted cell-killing curve with a large enough effect; inconclusive = small, poorly fitted or top-dose-only effect, or effect the other way; inactive = flat fitted curve, though single readings scatter. A potency beside an inconclusive call is a rough fit, not a confirmed value.

assay: qHTS assay for MDR1-selective chemotherapeutics: Primary screen using the drug-selected MDR subline cells KB-V1; details: KB-V1 MDR cells viability, CellTiter-Glo, 72 h; activity change, negative = cytotoxicity: at 46.1 µM (top of the series); also: nearly all actives have a fitted effect of over 60% in size
How it was run: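 Cytotoxicity toward P-gp-expressing KB-V1 cells was determined as loss of CellTiter-Glo luminescence after 72 h at 37 degrees C. Compounds were tested in quantitative HTS format across a concentration range, with curves fitted to normalized data.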
% is scaled to controls: 0 for no effect and ±100 for the full control effect; potency is read from the fitted curve at half-maximal effect.

Structure (SMILES)	Potency	activity change, negative = cytotoxicity
CCc1cccc(NC(=O)Cn2cc(C=O)c3ccccc32)c1	active: 20.6 µM	–
CC(=O)OCCN1c2ccccc2Sc2cnccc21	active: 14.6 µM	–
COc1cc(/C=N/NC(=O)c2ccc3c(c2)OCCO3)c(Br)c(Br)c1O	–	inactive: -12.1%
Cc1nnc(SCC(=O)N2c3ccccc3Sc3ccccc32)n1N	–	inactive: 10.7%
Cc1nc(NCCCN2CCOCC2)c2oc3ccccc3c2n1	inconclusive: 14.6 µM [cytotoxic, partial curve, poor fit]	–
COc1ccc(CC(=O)Nc2ccc3c(C)cc(=O)oc3c2)cc1OC	–	inactive: 14%
CCS(=O)(=O)NCC(c1ccco1)N1CCN(c2ccccc2)CC1 (stereo unspecified)	active: 23.1 µM	–
O=C1CCCC2=C1C1(O)C(=O)c3ccccc3C1(O)O2 (stereo unspecified)	inconclusive: 18.4 µM [rising, single point]	–
CCN(CC)CCNCC1C(=O)O[C@@H]2C[C@@]3(C)CCC[C@H](C)C3=C[C@H]12 (stereo partly specified)	inconclusive: 29.1 µM [cytotoxic, single point]	–
O=C(CSc1nc2ccccc2o1)Nc1nc(-c2ccccc2)c(-c2ccccc2)s1	inconclusive: 29.1 µM [cytotoxic, single point]	–
Cc1ccc(NC2CCCN(C(=O)CCc3scnc3C)C2)cc1C (stereo unspecified)	inconclusive: 16.4 µM [cytotoxic, partial curve]	–
c1ccc(COc2ccc(OCCCN3CCCC3)cc2)cc1	inconclusive: 23.1 µM [cytotoxic, single point]	–
CCOc1ccc(C(=O)N2CCC(C(=O)c3ccc4c(c3)OCCO4)CC2)cc1	active: 4.11 µM	–
COc1ccc(NC(=O)C2CCN(S(=O)(=O)c3ccc(OC)c(OC)c3)CC2)c(OC)c1	inconclusive: 9.2 µM [cytotoxic, partial curve, poor fit]	–
Cn1c(OCc2cccnc2)nc2c1c(=O)n(Cc1ccccc1)c(=O)n2C	inconclusive: 18.4 µM [cytotoxic, partial curve]	–
Cc1ccc(/C=C2/SC(=O)N(CC(=O)N3CCOCC3)C2=O)s1	active: 20.6 µM	–
NS(=O)(=O)c1ccc(N=Nc2ccc(=O)[nH]c2O)cc1	inconclusive: 29.1 µM [rising, single point]	–
CCN(c1ccccc1)S(=O)(=O)c1ccc(Cl)c(NC(=O)CN(C)C2CCN(C)CC2)c1	–	inactive: -10.8%
COc1ccc(Cl)cc1NC(=O)c1cnc(SC)nc1-c1ccccc1	–	inconclusive: -39.7%
Cc1nnc(SCCn2c(N3CCC(C)CC3)nc3c2c(=O)n(C)c(=O)n3C)s1	active: 11.6 µM	–
COc1cc(NC(=O)CC(C)S(=O)(=O)c2ccc3c(c2)CCN3C(C)=O)cc(OC)c1OC (stereo unspecified)	inconclusive: 29.1 µM [rising, single point]	–
CCCCCCCCN1C(=O)[C@H](CC(=O)NCCC(C)C)C[C@@]2(C(=O)OCC)CCC=C12	inconclusive: 20.6 µM [cytotoxic, single point]	–
O=C(COC(=O)c1ccc(-c2ccc([N+](=O)[O-])cc2)o1)NC(=O)NC12CC3CC(CC(C3)C1)C2	inconclusive: 29.1 µM [cytotoxic, single point]	–

By substructure: the entries above containing a Cl atom (two)
Structure (SMILES)	Potency	activity change, negative = cytotoxicity
CCN(c1ccccc1)S(=O)(=O)c1ccc(Cl)c(NC(=O)CN(C)C2CCN(C)CC2)c1	–	inactive: -10.8%
COc1ccc(Cl)cc1NC(=O)c1cnc(SC)nc1-c1ccccc1	–	inconclusive: -39.7%

(listing goes on)

Structure (SMILES)	Potency	activity change, negative = cytotoxicity
O=C(CSc1nnc2scc(-c3ccc(Cl)cc3)n12)Nc1cccc(C(F)(F)F)c1	–	inactive: 15.2%
Cc1ccc(C(=O)NNC(=O)C2CCN(S(=O)(=O)c3ccc(Cl)cc3)CC2)cc1	inconclusive: 7.31 µM [cytotoxic, partial curve, poor fit]	–
Cc1cccn2c(=O)nc(SCC(=O)NC3CCCC3)nc12	–	inactive: -6.05%
O=C1CC(c2ccccc2)Cc2nc3nc(C(F)(F)F)nn3cc21 (stereo unspecified)	–	inactive: 27.4%
CCOC(=O)C[C@H]1c2cc(F)ccc2S(=O)(=O)N1C(C)C	inconclusive: 29.1 µM [rising, single point]	–
CN(C)/C=N/C1=C(C#N)C(c2cccs2)c2ccc3ccccc3c2O1 (stereo unspecified)	active: 5.8 µM	–
C/C(=N\NC(=O)c1cc(-c2ccc(C)s2)nc2ccccc12)c1cccnc1	inconclusive: 16.4 µM [rising, single point]	–
CC(C)(C)NC(=O)c1ccc(COc2ccccc2Br)o1	inconclusive: 20.6 µM [cytotoxic, single point]	–
CS(=O)(=O)N1CCC(C(=O)N2CCc3ccccc3C2)CC1	–	inactive: -15.5%
Nn1c(SCC(=O)Nc2ccc3c(c2)OCCO3)nnc1-c1cccnc1	inconclusive: 2.91 µM [cytotoxic, partial curve, poor fit]	–
COc1ccc(Cl)cc1Nc1nc2ccc(C(=O)c3ccccc3)cc2n2cnnc12	–	inactive: 11.7%
CCOC(=O)Cc1ccc(NC(=O)N2CCc3c(sc4c3CCCC4)C2c2ccc(F)cc2)cc1 (stereo unspecified)	–	inactive: -21.5%
Clc1ccccc1CSc1nnc(-c2ccco2)c(-c2ccco2)n1	active: 20.6 µM	–
Cc1cc(C)cc(NC(=O)c2sc3nc4n(c(=O)c3c2C)CCC4)c1	inconclusive: 2.59 µM [cytotoxic, full curve, poor fit]	–
Cc1ccc(NC(=O)CN(C)S(=O)(=O)c2cccc3cccnc23)cc1F	inconclusive: 18.4 µM [cytotoxic, single point]	–
COc1cc(/C=C(\C#N)c2nc(-c3cc4ccccc4oc3=O)cs2)ccc1O	–	inactive: 0%
COC(=O)Cc1ccccc1NS(=O)(=O)c1ccc(C)cc1	–	inactive: 2.46%
CC1CCN(c2ccc(C(=O)Nc3ccc4c(c3)OCO4)cc2[N+](=O)[O-])CC1	inconclusive: 11.6 µM [cytotoxic, partial curve]	–
Cc1ccc(-c2nc3cc(NS(=O)(=O)c4ccc(C)cc4)ccc3o2)cc1	–	inactive: 1.25%
Cc1[nH]c(=O)[nH]c(=O)c1CSc1nnc([C@H](CC(C)C)NC(=O)OC(C)(C)C)o1	inconclusive: 32.6 µM [rising, partial curve, poor fit]	–
Cc1ccc(/C=N\Nc2cn[nH]c(=O)c2Cl)cc1	inconclusive: 3.55 µM [cytotoxic, partial curve, poor fit]	–
Cc1cc2c(cc3c(=O)n(CC(=O)NCCCN4CC(C)CC(C)C4)ncn32)s1 (stereo unspecified)	inconclusive: 9.2 µM [rising, partial curve]	–
CC1=NN(c2ccccc2)C(=O)/C1=C/c1c(O)n(-c2ccc(F)cc2)[nH]c1=O	active: 7.31 µM	–
